Laboratory results reported in article PMC13189625.
Results are given in words; binding and its absence hold for the method and conditions named. Binding seen in cells or lysates may run through a third protein. Binding calls can cover weak binding; strength is not graded here. Where a sequence is shown, tags or fusion partners need not be part of it.

The chains behind the UniProt entries cited, without tags or fusion partners. Where a name states a change or a piece, a line headed by the entry shows the natural chain unless it says otherwise.
UniProt O54851: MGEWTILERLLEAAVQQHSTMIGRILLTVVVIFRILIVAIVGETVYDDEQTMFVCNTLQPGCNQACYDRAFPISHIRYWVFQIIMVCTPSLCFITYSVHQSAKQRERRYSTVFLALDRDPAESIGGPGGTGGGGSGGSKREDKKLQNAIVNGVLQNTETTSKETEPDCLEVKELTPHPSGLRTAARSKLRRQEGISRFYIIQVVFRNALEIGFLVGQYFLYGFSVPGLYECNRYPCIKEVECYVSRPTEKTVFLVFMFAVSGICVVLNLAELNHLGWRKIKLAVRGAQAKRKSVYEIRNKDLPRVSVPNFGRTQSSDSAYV

Target: T1, FLAG-Sj2bp (UniProt P57105)
T1 sequence: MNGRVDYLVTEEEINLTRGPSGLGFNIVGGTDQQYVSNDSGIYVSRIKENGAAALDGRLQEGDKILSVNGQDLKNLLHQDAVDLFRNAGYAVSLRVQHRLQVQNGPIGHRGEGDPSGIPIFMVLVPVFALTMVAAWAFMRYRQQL
Assay: co-IP; co-transfected HEK293T lysate cleared at 20,000 × g; DYKDDDDK Fab-Trap agarose overnight, FLAG-Sj2bp as bait; Western blot

Substance: Cx36 with deletion of amino acids 313–319 (from UniProt O54851)
- binding: binds
